From publication PMC2323305 come the findings set out here.

Protein sequences, listed by entry. Tags and fused reporters are not part of them.
UniProt O77430: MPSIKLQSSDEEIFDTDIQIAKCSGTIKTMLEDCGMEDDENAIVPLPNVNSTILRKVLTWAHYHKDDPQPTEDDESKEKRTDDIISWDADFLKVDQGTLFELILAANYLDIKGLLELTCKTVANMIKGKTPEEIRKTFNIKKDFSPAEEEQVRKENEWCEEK
UniProt P40797: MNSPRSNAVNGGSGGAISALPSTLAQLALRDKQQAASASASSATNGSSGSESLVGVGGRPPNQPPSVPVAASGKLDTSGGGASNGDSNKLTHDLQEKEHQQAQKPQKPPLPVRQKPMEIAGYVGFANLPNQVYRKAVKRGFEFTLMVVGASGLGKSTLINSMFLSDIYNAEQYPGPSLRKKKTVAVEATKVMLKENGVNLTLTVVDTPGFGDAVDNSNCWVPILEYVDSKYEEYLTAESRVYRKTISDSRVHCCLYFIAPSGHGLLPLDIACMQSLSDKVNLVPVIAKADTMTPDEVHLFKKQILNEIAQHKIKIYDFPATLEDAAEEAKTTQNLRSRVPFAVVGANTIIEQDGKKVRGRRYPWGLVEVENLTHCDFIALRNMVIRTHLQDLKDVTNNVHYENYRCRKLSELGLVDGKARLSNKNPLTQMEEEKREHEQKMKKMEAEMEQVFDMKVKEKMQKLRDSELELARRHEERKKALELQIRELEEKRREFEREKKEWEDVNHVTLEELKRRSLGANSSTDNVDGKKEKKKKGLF

These are yes or no findings as the source states them, for the method shown. Binding seen in cells or lysates may run through a third protein.

Assay [1] concerns the target SkpA (Drosophila melanogaster (endogenous in 0-4-h embryos)) (UniProt O77430). The experiment in a line: co-IP; clarified 0-4-h embryo extract in C buffer; affinity-purified anti-SkpA or anti-Pnut antibodies immobilised (Profound Co-immunoprecipitation kit, Pierce), control beads without antibody; Western blot for SkpA, SkAP and Pnut.
The target in assay [2] is Pnut (Drosophila melanogaster (endogenous in 0-4-h embryos)) (UniProt P40797). Described as above.

Turning to Pnut (from UniProt P40797 1-539), the binding entry in assay [1] was “no binding”.

Consider SkpA (from UniProt O77430 1-162), for which the binding result in assay [2] was “no binding”.
